# Library screening results

The chains behind the UniProt entries cited, without tags or fusion partners.
UniProt E9BF75, entry or part of it: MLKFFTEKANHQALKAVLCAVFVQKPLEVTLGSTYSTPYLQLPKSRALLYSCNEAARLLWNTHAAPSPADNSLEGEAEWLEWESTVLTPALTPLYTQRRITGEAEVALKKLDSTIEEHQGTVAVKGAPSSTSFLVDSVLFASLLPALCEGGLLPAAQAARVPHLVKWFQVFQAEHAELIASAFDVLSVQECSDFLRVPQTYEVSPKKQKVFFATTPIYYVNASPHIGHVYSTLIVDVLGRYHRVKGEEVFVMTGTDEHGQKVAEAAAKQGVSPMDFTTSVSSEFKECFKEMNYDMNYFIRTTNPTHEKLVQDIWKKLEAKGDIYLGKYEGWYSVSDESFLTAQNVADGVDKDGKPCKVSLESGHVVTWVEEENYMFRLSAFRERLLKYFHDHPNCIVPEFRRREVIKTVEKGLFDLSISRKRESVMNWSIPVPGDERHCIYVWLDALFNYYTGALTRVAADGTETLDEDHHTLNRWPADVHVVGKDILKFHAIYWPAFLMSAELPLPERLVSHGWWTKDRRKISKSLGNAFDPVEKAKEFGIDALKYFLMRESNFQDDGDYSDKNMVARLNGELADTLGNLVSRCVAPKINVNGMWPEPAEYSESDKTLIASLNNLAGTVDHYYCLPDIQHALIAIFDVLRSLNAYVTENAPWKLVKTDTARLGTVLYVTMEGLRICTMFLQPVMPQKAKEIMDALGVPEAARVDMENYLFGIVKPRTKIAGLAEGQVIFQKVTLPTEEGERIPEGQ

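Methionyl-tRNA synthetase (putative), Leishmania donovani (UniProt E9BF75). Primary screen of methionyl-tRNA synthetase; the read-out is not stated. The test concentration is not given. Values are per cent inhibition. About 68,000 compounds were tested under these conditions; 0.035% (about 24) showed 50% or more at least once.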

All values are in %. The record does not define 0% and 100%; most values in the screen are far below 50% and negative numbers occur (in some assays of this library far below -100). The compounds are a random part of those screened.

* O=C1OCCN1Cc1ccc(C(F)(F)F)cc1F | 4.902%
* COCCN1CCC2(CC1)CC(c1cccnc1)CO2 (configuration not stated) | 14.72%
* Cc1ncc2c(n1)CCCC2NC(=O)c1cnn(Cc2ccccc2)c1 (configuration not stated) | 19.35%
* O=C(NCc1cc(N2CCOCC2)ncn1)c1cccc(CO)n1 | 9.524%
* c1ccc(-c2cc(CNCCCN3CCCCC3)c3nnnn3c2)cc1 | 16.08%
* COc1ccccc1C(=O)N1CCN(C(=O)Cc2ccccn2)CC1 | 1.433%
* O=C(NCCNS(=O)(=O)c1ccc2c(c1)CCC2)c1ccccc1 | 13.64%
* O=C1N(CCCc2ccccc2)CCCC12CCN(C(CO)CO)C2 (configuration not stated) | 14.52%
* Cc1cnc(CN2CCOC(Cn3nc(C)nc3C)C2)cn1 (configuration not stated) | -0.4695%
* CNc1nc(CNC(=O)Nc2cccc(-n3ccc(C)n3)c2)cs1 | 7.302%
* CC(C)(C)c1noc(CCC(=O)N(CC2CCOC2)C2CC2)n1 (configuration not stated) | 5.398%
* COCCN1CCC(CNC(=O)C2(C#N)CCCCC2)CC1 | 9.116%
* CCc1nc(CNC(C)Cn2cccn2)cs1 (configuration not stated) | 11.11%
* CCC(C)NC(=O)Nc1ccc(CN2CCOC2=O)cc1 (configuration not stated) | 2.655%
* NC(=O)C1CCCN1C1CCN(C(=O)c2ccc3c(c2)OCO3)CC1 (configuration not stated) | 15.67%
* Cc1nc[nH]c1CN1CCOC(c2ccc(Cl)c(Cl)c2)C1 (configuration not stated) | 12.98%
* CCNC(=O)Nc1ccc(N2CCC(OC)CC2)c(C(F)(F)F)c1 | 14.8%
* CC(C)c1cc(NC(=O)CN2CCCC(Cn3cncn3)C2)on1 (configuration not stated) | 13.12%
* O=C(Cc1ccccc1F)N1CCN(Cc2noc(C3CC3)n2)CC1 | 7.163%
* CN(C)S(=O)(=O)N1CCO[C@H]2[C@H](Oc3cccnc3)CC[C@@H]21 | 19.38%
* Cn1c(Cn2ccnc2)nnc1C1CCCN(CC(C)(C)C)C1 (configuration not stated) | 1.423%
* CN(C)C(=O)c1cc(S(=O)(=O)N2CCCC2Cn2ccnc2)cn1C (configuration not stated) | 11.7%
* Cc1cc(CN2CCCn3nc(CCC(=O)O)cc3C2)ccc1F | 12.04%
* CCN(C)c1ncnc2c1CCN(C(=O)c1ccno1)CC2 | 20.5%
* COCc1cccc(C(=O)N2CCCC2)c1 | 6.832%
* CCn1ncnc1C(C)Nc1cc(C2CC2)ncn1 (configuration not stated) | 10.53%
* O=C(CN1CCN(c2ncnc3cccc(F)c23)CC1)N1CCCC1 | 5.645%
* Cc1occc1C(=O)N1CCC2(CCC(C(=O)NCC3CC3)O2)CC1 (configuration not stated) | 13.8%
* CC(C)(C#N)C(=O)N1CCCC(c2cc(C(F)(F)F)[nH]n2)C1 (configuration not stated) | 17.46%
* CCn1cc(Br)c(C(=O)NCc2cccnc2)n1 | 8.661%
* CNC(=O)[C@@H](C1CCCCC1)N1CCC[C@H]1C(=O)NCCN1CCCC1 | 3.297%
* CC(=O)NC1CCN(c2nc(N(C)C)nc3c2CCCC3)CC1 | 10.8%
* Cc1ccc2c(n1)N(C)CCN(C(=O)NC1CC1)C2 | 2.929%
* CNC(=O)COC(=O)c1ccn(-c2ccc(Cl)c(Cl)c2)n1 | 7.563%
* O=C(CC1CCN(CCc2ccccc2)CC1)N1CCCOCC1 | 12.6%
* CC(=O)N1CCN(Cc2cccc3c2sc2ccccc23)CC(O)C1 (configuration not stated) | 4.811%
* Cc1cc(C)cc(N2CCN(Cc3cccc(CCN)c3)CC2=O)c1 | 2.558%
* COCCn1cnnc1CN(C)c1nc(N)nc2c1CCCC2 | 9.946%
* Cc1ccc(C)c2c(C)c(C(=O)NCC[S+](C)[O-])[nH]c12 (configuration not stated) | 15.75%
* CC(C)(CNC(=O)C1CCCCN1S(C)(=O)=O)N1CCOCC1 (configuration not stated) | 2.041%
* CCOc1ncccc1Cn1cc(-c2ccc(CO)o2)nn1 | 8.803%
* Cc1nc(-c2ccco2)ccc1C(=O)NCC(=O)N1CCCCC1 | 13.17%
* COc1ccc(C(=O)Cn2cnnc2[S+](C)[O-])cc1Cl (configuration not stated) | 14.95%
* Brc1cccc(-c2nnc(CNCCn3cccn3)o2)c1 | 20%
* CN(C)S(=O)(=O)N1C[C@H]2C[C@H](C(=O)NCc3ccccc3)[C@@H](C1)O2 | 5.882%
* CC(C)NC(=O)c1csc(NC2CC2)n1 | 15.16%
* CCC(=O)N1CCC(Cc2cc(Nc3ncccn3)ncn2)CC1 | 6.771%
* COCc1nc(N(C)C)ncc1C(=O)Nc1ccc(Cl)cc1 | 1.759%
* C[C@@H]1CN(C(=O)c2ccsc2)C[C@]12CCN(c1ccsc1)C2=O | 14.98%
* Cc1cccc(CN2C(=O)CCC23CCN(c2ncc(F)cn2)CC3)n1 | 12.46%
* CCCC(C)NC(=O)CCN1C(=O)CCc2cc(F)ccc21 (configuration not stated) | 10.05%
* CC(C)Nc1nc(-c2ccccc2)nc2c1CCN(C(=O)C1CC1)CC2 | 8.786%
* COc1ccc(CN(C)Cn2cc(C)n(-c3cc(C)on3)c2=O)cc1 | 12.94%
* CCOc1ccc2nc(CN3CCC(CNC(C)=O)C3)ccc2c1 (configuration not stated) | 15.38%
* c1cc(CCNc2ncc(-c3cnccn3)c(C3CC3)n2)ccn1 | 8.399%
* COc1ccc2cc(-c3n[nH]cc3CN3CCSCC3)ccc2c1 | 11.94%
* CC(C)(C)CN1CCN(CC2CC2)C(CCO)C1 (configuration not stated) | 19.24%
* CC(C)c1cc(C(=O)NCCN2CCCCC2CO)on1 (configuration not stated) | 6.954%
* CC(C)N1C[C@H](NC(=O)c2coc(COc3cccc(F)c3)n2)[C@@H](O)C1 | 11.34%

Some entries from above, unchanged:

Compound,inhibition
CCN(C)c1ncnc2c1CCN(C(=O)c1ccno1)CC2,20.5
COc1ccc(C(=O)Cn2cnnc2[S+](C)[O-])cc1Cl (configuration not stated),14.95
COCc1cccc(C(=O)N2CCCC2)c1,6.832
CCC(C)NC(=O)Nc1ccc(CN2CCOC2=O)cc1 (configuration not stated),2.655

From ChEMBL document CHEMBL3988442, “University of Dundee, Small-Polar-MMV Screening Library” (2021).